These are yes or no findings as the source states them, for the method shown. Some results given as binding are weak or reduced against the parent protein; the word gives no strength. Tags and fused reporters may be left off the sequences shown.
T1: BD-AtCGL160N, AtCGL160N (29-206 aa) fused to the GAL4 DNA-binding domain (Arabidopsis thaliana) (UniProt O82279)
T1 sequence: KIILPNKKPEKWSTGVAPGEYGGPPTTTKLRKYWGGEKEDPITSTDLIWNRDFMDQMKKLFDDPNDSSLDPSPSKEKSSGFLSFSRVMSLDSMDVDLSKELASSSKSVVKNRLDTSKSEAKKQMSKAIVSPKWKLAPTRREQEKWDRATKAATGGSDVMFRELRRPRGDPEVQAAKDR

Protein sequences, listed by entry. Tags and fused reporters are not part of them.
UniProt P56757: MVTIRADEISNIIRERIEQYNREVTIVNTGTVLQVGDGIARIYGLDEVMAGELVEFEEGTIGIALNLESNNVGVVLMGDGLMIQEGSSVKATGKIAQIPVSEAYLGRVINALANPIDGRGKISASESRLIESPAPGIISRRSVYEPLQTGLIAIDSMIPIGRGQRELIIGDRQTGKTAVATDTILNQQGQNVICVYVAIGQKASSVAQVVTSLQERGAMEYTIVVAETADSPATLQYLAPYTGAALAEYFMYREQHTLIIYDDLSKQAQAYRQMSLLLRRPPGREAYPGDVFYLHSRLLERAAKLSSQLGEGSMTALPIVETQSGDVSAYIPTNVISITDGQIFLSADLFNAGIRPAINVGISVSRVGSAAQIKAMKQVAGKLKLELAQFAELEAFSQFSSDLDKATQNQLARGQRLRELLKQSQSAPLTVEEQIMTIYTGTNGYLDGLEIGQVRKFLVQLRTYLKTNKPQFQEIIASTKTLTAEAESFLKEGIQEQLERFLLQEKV
UniProt P19366: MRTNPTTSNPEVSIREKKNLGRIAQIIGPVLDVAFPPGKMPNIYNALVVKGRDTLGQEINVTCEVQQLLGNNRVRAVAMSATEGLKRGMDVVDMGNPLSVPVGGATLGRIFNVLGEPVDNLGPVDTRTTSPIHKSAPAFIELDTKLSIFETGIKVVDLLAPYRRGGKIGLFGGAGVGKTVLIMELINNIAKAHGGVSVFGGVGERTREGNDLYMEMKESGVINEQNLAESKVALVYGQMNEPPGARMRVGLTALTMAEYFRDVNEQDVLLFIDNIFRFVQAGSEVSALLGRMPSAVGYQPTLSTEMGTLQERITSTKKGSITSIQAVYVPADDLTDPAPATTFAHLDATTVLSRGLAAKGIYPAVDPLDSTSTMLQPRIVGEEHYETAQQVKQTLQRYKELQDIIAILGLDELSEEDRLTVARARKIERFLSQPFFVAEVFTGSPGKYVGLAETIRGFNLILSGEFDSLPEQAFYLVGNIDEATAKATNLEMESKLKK

T2: BD-AtCGL160N ∆106-134 (Arabidopsis thaliana) (UniProt O82279)
T2 sequence: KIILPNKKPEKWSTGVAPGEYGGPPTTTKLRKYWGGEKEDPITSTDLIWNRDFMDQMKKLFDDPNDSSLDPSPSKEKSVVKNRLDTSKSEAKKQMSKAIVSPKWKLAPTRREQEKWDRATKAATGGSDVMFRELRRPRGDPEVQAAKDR

T3: BD-AtCGL160N ∆135-160 (Arabidopsis thaliana) (UniProt O82279)
T3 sequence: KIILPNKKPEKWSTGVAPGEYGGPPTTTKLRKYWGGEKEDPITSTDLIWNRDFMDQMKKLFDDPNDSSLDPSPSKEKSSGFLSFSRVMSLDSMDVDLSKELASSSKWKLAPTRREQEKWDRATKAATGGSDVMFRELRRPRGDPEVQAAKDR

T4: BD-AtCGL160N ∆161-206 (Arabidopsis thaliana) (UniProt O82279)
T4 sequence: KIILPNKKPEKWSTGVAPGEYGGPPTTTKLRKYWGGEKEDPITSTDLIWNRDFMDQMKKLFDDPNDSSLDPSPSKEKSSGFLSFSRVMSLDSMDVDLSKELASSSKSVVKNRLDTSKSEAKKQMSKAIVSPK

T5: BD-AtCGL160N ∆29-74 (Arabidopsis thaliana) (UniProt O82279)
T5 sequence: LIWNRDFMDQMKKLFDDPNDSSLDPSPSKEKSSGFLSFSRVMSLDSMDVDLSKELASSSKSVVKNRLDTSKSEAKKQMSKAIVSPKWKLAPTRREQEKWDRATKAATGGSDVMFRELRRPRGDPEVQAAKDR

T6: BD-AtCGL160N ∆75-105 (Arabidopsis thaliana) (UniProt O82279)
T6 sequence: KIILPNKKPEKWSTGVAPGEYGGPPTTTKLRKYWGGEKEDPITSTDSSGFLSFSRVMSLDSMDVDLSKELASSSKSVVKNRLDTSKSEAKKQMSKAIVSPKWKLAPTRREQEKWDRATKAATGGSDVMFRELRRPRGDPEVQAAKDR


How the values were obtained:
Assay in all cases: two-hybrid
[1] = biological target: T1, BD-AtCGL160N, AtCGL160N (29-206 aa) fused to the GAL4 DNA-binding domain (Arabidopsis thaliana)
[2] = biological target: T2, BD-AtCGL160N ∆106-134 (Arabidopsis thaliana)
[3] = biological target: T3, BD-AtCGL160N ∆135-160 (Arabidopsis thaliana)
[4] = biological target: T4, BD-AtCGL160N ∆161-206 (Arabidopsis thaliana)
[5] = biological target: T5, BD-AtCGL160N ∆29-74 (Arabidopsis thaliana)
[6] = biological target: T6, BD-AtCGL160N ∆75-105 (Arabidopsis thaliana)

| Molecule | binding [1] | other results |
| --- | --- | --- |
| AD-CF1-α, CF1-α fused to the GAL4 activation domain (from UniProt P56757 1-507) | no binding | – |
| AD-CF1-β, CF1-β fused to the GAL4 activation domain (from UniProt P19366 1-498) | binds | binding [2]: binds; binding [3]: binds; binding [4]: binds; binding [5]: no binding; binding [6]: no binding |
| AD-CF1-δ, CF1-δ fused to the GAL4 activation domain (protein, UniProt Q9SSS9 48-234) SATAASSYAMALADVAKRNDTMELTVTDIEKLEQVFSDPQVLNFFANPTITVEKKRQVIDDIVKSSSLQSHTSNFLNVLVDANRINIVTEIVKEFELVYNKLTDTQLAEVRSVVKLEAPQLAQIAKQVQKLTGAKNVRVKTVIDASLVAGFTIRYGESGSKLIDMSVKKQLEDIASQLELGEIQLAT | no binding | – |
| AD-CF1-ε, CF1-ε fused to the GAL4 activation domain (protein, UniProt P09468 1-132) MTLNLCVLTPNRIVWDSEVKEIILSTNSGQIGVLANHAPIATAVDIGILKIRLANQWLTMALMGGFARIGNNEITILVNDAEKNSDIDPQEAQQTLEIAEANLRKAEGKRQTIEANLALRRARTRVEALNTI | no binding | – |
| AD-CFO-b, soluble domain of CFO-b (51-184 aa) fused to the GAL4 activation domain (domain or fragment, UniProt P56759 51-184) DLLDNRKQRILNTIRNSEELREGAIQQLENARARLRNVETEADKFRVNGYSEIEREKLNLINSTYKTLKQLENYKNETILFEQQRTINQVRERVFQQALQGAIGTLNSCLSNELHLRTINANIGMFGTMKEITD | no binding | – |
| AD-CFO-b', soluble domain of CFO-b' (109-219 aa) fused to the GAL4 activation domain (domain or fragment, UniProt Q42139 109-219) PLGNFMDQRDASIKEKLASVKDTSTEVKELDEQAAAVMRAARAEIAAALNKMKKETQVEVEEKLAEGRKKVEEELKEALASLESQKEETIKALDSQIAALSEDIVKKVLPS | no binding | – |
| BD-AtCGL160N, AtCGL160N (29-206 aa) fused to the GAL4 DNA-binding domain (domain or fragment, UniProt O82279 29-206) KIILPNKKPEKWSTGVAPGEYGGPPTTTKLRKYWGGEKEDPITSTDLIWNRDFMDQMKKLFDDPNDSSLDPSPSKEKSSGFLSFSRVMSLDSMDVDLSKELASSSKSVVKNRLDTSKSEAKKQMSKAIVSPKWKLAPTRREQEKWDRATKAATGGSDVMFRELRRPRGDPEVQAAKDR | no binding | – |

— article doi:10.1101/2021.10.01.462544
